From PubChem BioAssay AID493014 (National Center for Advancing Translational Sciences (NCATS), 2011)
Some of the results follow. These are further read-outs of the screen, such as a control signal, another cell line or another target. No call is given for them. Most of these compounds were active or inconclusive in the main read-out, so they are no random draw. The note in brackets gives the kind of curve behind each potency; many fits are weak.

Test: qHTS Assay to Find Inhibitors of Chronic Active B-Cell Receptor Signaling
Details: ABC-DLBCL IkBa-CBG/CBR reporter, luminescence ratio (green luciferase fused to IkBa over red control in TMD8 lymphoma cells), 4 h
Summary of the method: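 Compounds up to 46 uM were incubated four hours with TMD8 cells whose green CBG68 luciferase is fused to IkappaBalpha; red CBR luminescence normalised the signal, and concentration-effect curves were fitted to fusion, red and ratio data.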

[1] = measured here: CBR red luminescence, cell number
[2] = measured here: IkBa-CBG green luminescence

Row | SMILES | AC50 [1] | AC50 [2]
1 | COc1cccc2cc(C(=O)NCCc3ccccc3)c(=O)oc12 | 15.8 µM [falling, partial curve, poor fit] | –
2 | COc1cc(OC)c(OC)cc1/C=C/c1nc2cc3ccccc3cc2c(=O)n1-c1ccc(F)cc1F | 2.24 µM [falling, full curve] | –
3 | Cc1ccc(S(=O)(=O)/N=C2/C=C(C3C(=O)CC(C)(C)CC3=O)C(=O)c3ccccc32)cc1 | 18.4 µM [falling, single point] | 25.9 µM [rising, partial curve, poor fit]
4 | CCCCn1c(-c2csc3c2CCC(C)C3)n[nH]c1=S (stereo not drawn) | 35.5 µM [rising, partial curve, poor fit] | –
5 | CCCCOC(=O)C1=C(C)Nc2ncnn2C1c1cccc(OC)c1 (stereo not drawn) | 5.62 µM [rising, single point] | –
6 | Cc1ccc(C)c(OCC(=O)NCCNC(=O)COc2cc(C)ccc2C)c1 | 2.31 µM [rising, partial curve, poor fit] | –
7 | COC(=O)c1ccc(C(=O)OC)c(NC(=O)c2cnc3n(c2=O)CCS3)c1 | 32.6 µM [rising, partial curve, poor fit] | –
8 | O=C1c2cccc(OCc3ccc(F)cc3)c2CCN1Cc1ccc(F)cc1 | 16.4 µM [falling, partial curve, poor fit] | –
9 | CCN(CC)C(=O)c1cc(-c2ccc3c(c2)OCO3)on1 | 31.6 µM [falling, single point] | –
10 | COc1ccccc1CNC(=O)COC(=O)c1n[nH]c2ccccc12 | 6.51 µM [falling, partial curve, poor fit] | –
11 | Cc1cc(C(=O)Nc2nc3c(s2)CCCC3)cs1 | 10 µM [falling, partial curve] | –
12 | C=CCSc1nc(N)c(C(=O)Nc2ccccc2)cc1C#N | 2.06 µM [falling, partial curve, poor fit] | –
13 | COc1ccc2cc(C(=O)/C=C/c3cc(OC)c(OC)c(OC)c3)ccc2c1 | 10 µM [falling, partial curve, poor fit] | –
14 | c1cncc(-c2csc(-c3cccnc3)n2)c1 | 0.708 µM [rising, full curve, poor fit] | –
15 | Cc1nc2c(-c3ccccc3)cnn2c(N2CCOCC2)c1C | 3.98 µM [rising, full curve, poor fit] | –
16 | CS(=O)(=O)Nc1cccc(C2=NN(C(=O)c3ccco3)C(c3cccs3)C2)c1 (stereo not drawn) | 11.2 µM [falling, single point] | –
17 | COCCN1CCN(c2cc(-c3ccccc3)nc3cc(-c4cccc(F)c4)nn23)CC1 | 29.1 µM [falling, single point] | –
18 | COc1cccc(NC(=O)NCCCSC2CCCCC2)c1 | 35.5 µM [falling, single point] | –
19 | O=C(COC(=O)C1CC(=O)N(c2nc(-c3ccccc3)cs2)C1)c1ccccc1 (stereo not drawn) | 5.8 µM [falling, single point] | –
20 | COC(=O)c1cn(C(=O)c2ccccc2Cl)c2ccccc12 | 12.6 µM [rising, partial curve, poor fit] | –

Row | SMILES | AC50 [1] | AC50 [2]
21 | CCN(C(=O)COC(=O)c1ccccc1SCC(=O)N1CCCC1)C1CCS(=O)(=O)C1 (stereo not drawn) | 14.6 µM [falling, partial curve, poor fit] | –
22 | O=Cc1c(OCc2ccccc2)ccc2ccccc12 | 35.5 µM [falling, single point] | –
23 | NC(=O)c1cnn(-c2cccc(Cl)c2)c1N | 2 µM [rising, full curve, poor fit] | –
24 | COc1ccc(C(=O)/C=C/c2ccc(OC3CSC3)cc2)cc1 | 32.6 µM [falling, single point] | –
25 | Clc1cccc2sc(N3CCCC3)nc12 | 3.66 µM [rising, full curve, poor fit] | –
26 | O=C(NCCCl)c1ccc(OCc2ccccc2)cc1Cl | 12.6 µM [falling, partial curve] | –
27 | COc1c(Cl)cccc1-c1cn2ccc(C)cc2n1 | 35.5 µM [falling, single point] | –
28 | Cc1cc(Cl)ccc1Nc1ncccc1C(N)=O | 7.31 µM [rising, partial curve, poor fit] | –
29 | CCOc1ccc(N2CC(NC(=O)C(=O)c3c[nH]c4ccccc34)CC2=O)cc1 (stereo not drawn) | 12.6 µM [falling, partial curve, poor fit] | –
30 | CC1=CC2=NC(=O)/C(=C\c3cccn3CCOc3ccccc3C)C(=N)N2O1 | 28.2 µM [falling, single point] | –
31 | CCCCn1c(-c2ccccc2C)nc2cc3[nH]c(=O)c(C(C)C)nc3cc21 | 14.1 µM [falling, partial curve] | 10 µM [rising, partial curve, poor fit]
32 | CC(C)(C)c1cc(N)n2nc(C(C)(C)C)cc2n1 | 1 µM [rising, full curve] | –
33 | CCC1(CC)NC(=O)N(CC(=O)N2N=C(c3ccc(Cl)cc3)CC2c2ccco2)C1=O (stereo not drawn) | 1 µM [rising, full curve, poor fit] | 10 µM [falling, partial curve, poor fit]
34 | CCc1ccc(Sc2cc(C(=O)NCc3ccccc3OC)c3ccccc3n2)cc1 | 3.98 µM [rising, partial curve, poor fit] | –
35 | Oc1nc(Nc2ccc(F)cc2)sc1/C=C1\C=Nc2ccccc21 | 10 µM [falling, partial curve, poor fit] | –
36 | Cc1cc(=O)n2[nH]c(SCc3ccccc3Cl)nc2n1 | 10 µM [falling, partial curve] | –
37 | CCCCn1c(N)c(N(CC(C)C)C(=O)C2CC(=O)N(c3ccc(C)cc3)C2)c(=O)[nH]c1=O (stereo not drawn) | 32.6 µM [falling, single point] | –
38 | O=C(CC(c1ccccc1)(c1ccccc1)c1ccccc1)N[C@@H](Cc1ccccc1)C(=O)O | 1.26 µM [falling, full curve, poor fit] | –
39 | Cc1ccccc1Cn1c(CN2CCN(C(=O)c3ccco3)CC2)nc2c1c(=O)n(C)c(=O)n2C | 25.9 µM [rising, single point] | –
40 | CC(Sc1nnc(N)s1)C(=O)Nc1ccc(N2CCOCC2)cc1 (stereo not drawn) | 23.1 µM [rising, single point] | –

Given field by field: 2 of the compounds above.
O=C(COC(=O)C1CC(=O)N(c2nc(-c3ccccc3)cs2)C1)c1ccccc1 (stereo not drawn)
  AC50 [1]: 5.8 µM [falling, single point]
CCc1ccc(Sc2cc(C(=O)NCc3ccccc3OC)c3ccccc3n2)cc1
  AC50 [1]: 3.98 µM [rising, partial curve, poor fit]
